Experimental findings from PMC6784373 are described below.

Chains of the proteins cited; added tags and fusions are not shown. A line that says so, or that is headed by a name, gives the form on record, which may keep a tag or linker.
tau381 (1N3R as printed) (human), one chain, as listed by the source: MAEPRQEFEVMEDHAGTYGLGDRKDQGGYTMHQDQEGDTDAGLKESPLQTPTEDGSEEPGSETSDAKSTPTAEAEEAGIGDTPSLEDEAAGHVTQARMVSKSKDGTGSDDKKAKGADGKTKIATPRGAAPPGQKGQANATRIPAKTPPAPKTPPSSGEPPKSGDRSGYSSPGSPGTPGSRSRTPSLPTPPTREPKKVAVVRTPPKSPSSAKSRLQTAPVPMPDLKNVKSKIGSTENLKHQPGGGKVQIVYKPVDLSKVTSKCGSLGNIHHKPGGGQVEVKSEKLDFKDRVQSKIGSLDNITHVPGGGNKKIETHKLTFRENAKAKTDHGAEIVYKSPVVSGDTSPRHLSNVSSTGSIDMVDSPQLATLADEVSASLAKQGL

For at least one entry, the source does not settle the construct or the ends of the probe.

The subject of this data set is tau381 (1N3R as printed) (human). In words: capillary electrophoresis of equilibrium mixtures (NECEEM). The settings on record: 0.1 M PBS pH 7.0, 5 uM aptamer for immobilization, 30 min tau381 incubation, DPV -0.6 to 0.2 V; EIS in 10 mM [Fe(CN)6]3-/4-; temperature not stated; commercial protein; single-stranded DNA.

“GCGGAGCGTGGCAGG [tau381 aptamer (ref 9)]”: the Kd (as a rule, the concentration at which binding is half-saturated) was 190 nM.
